From patent publication US7229806B2, “Microbial conversion of glucose to para-hydroxystyrene” (E. I. du Pont de Nemours and Company, priority 2002, dated 2007) come the findings set out here.

The nature of the series: Characterization of purified PDC enzymes (pHCA as substrate). In kind it is biochemical. The note with it: PDC enzyme. The method, then:
The reaction was initiated by the addition of 1.0 μL of enzyme to a 1.0 mL solution containing 25 mM phosphate buffer, pH 6.0, and 0.2 mM pHCA in a plastic, UV transparent cuvette. The reaction was then followed for 5 minutes spectrophotometrically at 315 nm at room temperature, using a molar extinction coefficient of […] for pHCA disappearance. The specific activity was expressed as micromoles of pHCA degraded per minute per milligram of protein.
The characteristics of the PDC enzymes isolated from L. plantarum and B. subtilis were obtained using standard spectrometric and electrophoretic techniques and are listed in Table 5.

B1: L. plantarum: para-hydroxycinnamic acid decarboxylase (pdc1) from L. plantarum, SEQ ID NO:4, expressed in E. coli and purified (protein, listed as Lactobacillus plantarum)
chain: MTKTFKTLDDFLGTHFIYTYDNGWEYEWYAKNDHTVDYRIHGGMVAGRWVTDQKADIVMLTEGIYKISWTEPTGTDVALDFMPNEKKLHGTIFFPKWVEEHPEITVTYQNEHIDLMEQSREKYATYPKLVVPEFANITYMGEGQNNEDVISEAPYKEMPNDIRNGKYLIKTTIV
Consider B1, for which the “Temperature Optimum” value stood at 30 °C and the “pH Optimum” value is recorded as 5.5–6.0.

B2: B. subtilis: para-hydroxycinnamic acid decarboxylase (pdc2) from B. subtilis, SEQ ID NO:6, expressed in E. coli and purified (protein, listed as Bacillus subtilis)
chain: MENFIGSHMIYTYENGWEYEIYIKNDHTIDYRIHSGMVAGRWVRDQEVNIVKLTEGVYKVSWTEPTGTDVSLNFMPNEKRMHGIIFFPKWVHEHPEITVCYQNDHIDLMKESREKYETYPKYVVPEFAEITFLKNEGVDNEEVISKAPYEGMTDDIRAGRL
As for B2, the “Temperature Optimum” value is 40–45 °C and the “pH Optimum” value is listed as 5.0.
